Laboratory results: ChEMBL document CHEMBL6182836 (RSC Med Chem, 2025)

Conditions: mouse, 24 h

COc1cc2c(cc1OC)C(=O)C(CC1CCN(Cc3ccccc3)CC1)C2 (stereo unspecified) [DONEPEZIL]
permeability: 78%
